Record: PubChem BioAssay AID652243 (Drosophila RNAi Screening Center, 2013)

Screen: 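Fly regulators of androgen-dependent reporter output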 (primary screen)
Cells: Drosophila S2R+ cells
Knock-down reagent: long dsRNA against Drosophila genes
Time to read-out: 72 h (48 h, then 24 h hormone)
Treatment: synthetic androgen R1881 at 10 nM for 24 h
Measured: 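Per-well raw luminescence of the androgen-driven firefly reporter and of the Renilla control, two replicates each, without normalisation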
Reading the numbers: firefly reporter light: higher = more light from androgen-responsive reporter; Renilla control light: higher = more constitutive control signal (cell number, transfection)
Rule for the call: 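Across duplicate plates, a knock-down whose log firefly/Renilla ratio shifted a set fold down or up from the GFP/LacZ control mean was a hit; the downward cut appears as both 1.5 and 3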
Calls: active = hit: reporter lowered or raised; inactive = no hit
In all, the deposit lists about 24,000 reagents; below is an unselected part of those with a known target gene and a result. Of all reagents, 246 (1%) were called active. 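Plates not normalised; calls are printed but the firefly/Renilla ratio behind them is not deposited; fold cut for lowering reported inconsistently.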 The raw values are shown without normalisation. A plus sign joins genes that one reagent is predicted to hit. No sequences are given here. Not given: the amount of reagent.

| Target gene | DRSC id | firefly reporter light, replicate 1 | firefly reporter light, replicate 2 | Renilla control light, replicate 1 | Renilla control light, replicate 2 | outcome |
| --- | --- | --- | --- | --- | --- | --- |
| Ir21a + asRNA:CR43609 | DRSC00528 | 62097 | 62620 | 3.18e5 | 4.83e5 | inactive |
| Jhbp15 | DRSC15217 | 2.39e5 | 2.85e5 | 3.03e6 | 3.33e6 | inactive |
| CG14515 | DRSC14867 | 1.12e5 | 1.16e5 | 1.93e6 | 2.54e6 | inactive |
| Cp7Fb | DRSC18034 | 2.03e5 | 3.42e5 | 3.42e6 | 3.67e6 | inactive |
| Ssdp | DRSC16211 | 33516 | 37172 | 4.87e5 | 5.27e5 | inactive |
| Ssdp | DRSC27526 | 2.53e5 | 2.19e5 | 4.00e5 | 6.22e5 | inactive |
| CG33978 | DRSC38804 | 9.88e5 | 8.97e5 | 1.64e6 | 1.88e6 | inactive |
| CG44098 | DRSC12214 | 7.00e5 | 9.36e5 | 1.35e6 | 2.29e6 | inactive |
| CG44098 | DRSC12240 | 69468 | 94760 | 1.92e6 | 1.81e6 | inactive |
| CG44098 | DRSC12327 | 91612 | 96913 | 2.18e6 | 2.07e6 | inactive |
| CG44098 | DRSC23643 | 4.10e5 | 4.58e5 | 6.53e5 | 7.04e5 | inactive |
| CG44098 | DRSC24166 | 8.62e5 | 8.25e5 | 1.22e6 | 1.29e6 | inactive |
| CG44098 | DRSC26836 | 4.52e5 | 4.24e5 | 1.26e6 | 9.29e5 | inactive |
| CG2124 | DRSC18208 | 4.08e5 | 3.50e5 | 2.25e6 | 2.30e6 | inactive |
| CapaR | DRSC23640 | 9.24e5 | 1.26e6 | 1.42e6 | 1.25e6 | inactive |
| CG10505 | DRSC04075 | 2.48e5 | 3.51e5 | 2.23e6 | 2.27e6 | inactive |
| IM33 | DRSC00476 | 1.76e5 | 1.45e5 | 1.10e6 | 7.69e5 | inactive |
| IM33 | DRSC24513 | 7.51e5 | 9.24e5 | 6.26e5 | 9.68e5 | inactive |
| CG12105 | DRSC08255 | 6.52e5 | 1.18e6 | 1.23e6 | 1.26e6 | inactive |
| CG12105 | DRSC24635 | 8.97e5 | 7.87e5 | 8.52e5 | 6.63e5 | inactive |
| strat | DRSC03069 | 1.92e5 | 1.82e5 | 1.72e6 | 1.66e6 | inactive |
| cpb | DRSC00809 | 7.26e5 | 8.04e5 | 2.49e6 | 2.47e6 | inactive |
| cpb | DRSC29870 | 9.58e5 | 9.80e5 | 8.96e5 | 1.10e6 | inactive |
| kmg | DRSC02829 | 2.25e5 | 2.28e5 | 1.25e6 | 1.17e6 | inactive |
| HDAC1 | DRSC08696 | 5.96e5 | 5.82e5 | 8.51e5 | 1.61e6 | inactive |
| CG14805 | DRSC18554 | 1.51e5 | 1.50e5 | 2.67e6 | 3.16e6 | inactive |
| Tom | DRSC11306 | 8.82e5 | 8.38e5 | 1.33e6 | 1.53e6 | inactive |
| Tom | DRSC27660 | 3.87e5 | 3.50e5 | 4.88e5 | 6.53e5 | inactive |
| Tom | DRSC38982 | 7.17e5 | 6.88e5 | 1.56e6 | 1.39e6 | inactive |
| Pura | DRSC08891 | 1.99e5 | 1.26e5 | 4.07e5 | 2.27e5 | inactive |
| Pura | DRSC10862 | 1.23e5 | 1.78e5 | 1.28e6 | 1.65e6 | inactive |
| Pura | DRSC10864 | 1.06e5 | 1.02e5 | 1.33e6 | 1.16e6 | inactive |
| Pura | DRSC10865 | 95541 | 85316 | 2.26e6 | 2.12e6 | active |
| Pura | DRSC10866 | 1.46e5 | 1.32e5 | 3.14e6 | 3.17e6 | active |
| Pura | DRSC26606 | 3.26e5 | 3.99e5 | 3.72e5 | 3.26e5 | inactive |
| Rif1 | DRSC05593 | 2.34e5 | 2.62e5 | 4.42e5 | 4.66e5 | inactive |
| lz | DRSC18790 | 2.81e5 | 3.09e5 | 3.45e6 | 2.91e6 | inactive |
| lz | DRSC22302 | 4.92e5 | 5.61e5 | 1.94e6 | 2.06e6 | inactive |
| lz | DRSC25157 | 4.14e5 | 4.28e5 | 4.41e5 | 5.55e5 | inactive |
| CG43759 | DRSC19464 | 1.44e5 | 1.40e5 | 6.84e5 | 6.62e5 | inactive |
| CG43759 | DRSC19543 | 1.03e5 | 74874 | 5.02e5 | 2.55e5 | inactive |
| CG43759 | DRSC26393 | 3.10e5 | 3.46e5 | 4.67e5 | 7.61e5 | inactive |
| ttv | DRSC07709 | 4.96e5 | 8.88e5 | 2.63e6 | 2.21e6 | inactive |
| ttv | DRSC26088 | 3.68e5 | 3.88e5 | 6.84e5 | 6.48e5 | inactive |
| Pa1 | DRSC19422 | 4.29e5 | 4.72e5 | 4.46e6 | 4.45e6 | inactive |
| Pa1 | DRSC29046 | 5.90e5 | 5.22e5 | 1.71e6 | 1.46e6 | inactive |
| ras | DRSC18825 | 1.25e5 | 98857 | 8.35e5 | 7.35e5 | inactive |
| ras | DRSC27137 | 2.63e5 | 2.13e5 | 6.47e5 | 6.86e5 | inactive |
| CG18530 | DRSC15341 | 1.52e5 | 2.59e5 | 2.44e6 | 2.99e6 | inactive |
| CG14314 | DRSC14793 | 76450 | 1.20e5 | 1.13e6 | 1.48e6 | inactive |
| epsilonTry | DRSC07611 | 1.71e5 | 1.90e5 | 1.05e6 | 9.15e5 | inactive |
| epsilonTry | DRSC25110 | 8.21e5 | 6.39e5 | 4.64e5 | 5.57e5 | inactive |
| slbo | DRSC04716 | 7.62e5 | 7.04e5 | 1.68e6 | 1.32e6 | inactive |
| slbo | DRSC27813 | 2.96e5 | 2.70e5 | 5.92e5 | 7.48e5 | inactive |
| tous | DRSC04464 | 5.93e5 | 6.90e5 | 1.35e6 | 8.58e5 | inactive |
| su(w[a]) | DRSC18840 | 15713 | 23516 | 2.35e5 | 2.34e5 | active |
| su(w[a]) | DRSC29287 | 6.50e5 | 6.83e5 | 9.59e5 | 9.92e5 | inactive |
| CG13022 | DRSC09902 | 2.44e5 | 2.50e5 | 2.20e6 | 1.85e6 | inactive |
